PubChem BioAssay AID1259308 – NCATS – 2017

- Test: 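Candidate targets for better recombinant protein yield in mammalian cells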 (primary screen)
- Cells: human HEK293 embryonic kidney cells stably expressing firefly luciferase (HEK-CMV-Luc2-Hygro)
- Knock-down reagent: single siRNA against human genes, 0.8 pmol siRNA per well
- Duration: 72 h
- Detection: 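Luciferase light (ONE-Glo) measured on one replicate plate set and viability (CellTiter-Glo) on the other, scaled to a negative control siRNA, with robust z-scores and luciferase per cell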
- Direction: total luciferase, z-score and total luciferase, % of control: higher = more reporter protein produced
- Active means: 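Active when the median/MAD z-score for overall luciferase is greater than 3; a gene was taken forward for validation with new siRNAs if at least two of its three siRNAs passed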
- Calls: active = raised luciferase; inactive = no rise
In all, the deposit lists about 59,000 reagents; below is a random part of them. In the full data, about 1,510 (2.6%) were called active. 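Calls use total luciferase alone and ignore viability, so some active siRNAs may act by altering cell number.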 Entries without a mark were called inactive. The numbers tell different reagents against one gene apart. Further read-outs or replicates are left out here. No sequences are given here.

no.	gene symbol	reagent	total luciferase, z-score	total luciferase, % of control
1	PFN1P6 (profilin 1 pseudogene 6)	1	0.578	93.4
2	PFN1P6 (profilin 1 pseudogene 6)	2	-0.738	67.2
3	PFN1P6 (profilin 1 pseudogene 6)	3	0.255	87
4	SMPD5 (sphingomyelin phosphodiesterase 5 (pseudogene))	1	-0.742	67.1
5	SMPD5 (sphingomyelin phosphodiesterase 5 (pseudogene))	2	-0.285	76.2
6	SMPD5 (sphingomyelin phosphodiesterase 5 (pseudogene))	3	-0.0915	80.1
7	THRAP3 (thyroid hormone receptor associated protein 3)	1	0.42	90.2
8	THRAP3 (thyroid hormone receptor associated protein 3)	2	0.249	86.8
9	THRAP3 (thyroid hormone receptor associated protein 3)	3	-0.26	76.7
10	BACE1 (beta-secretase 1)	1	-0.971	62.6
11	BACE1 (beta-secretase 1)	2	-0.305	75.8
12	BACE1 (beta-secretase 1)	3	-2.11	40
13	TNR (tenascin R)	1	1.82	118
14	TNR (tenascin R)	2	0.265	87.2
15	TNR (tenascin R)	3	-1.45	53
16	SLC22A15	1	0.863	99.1
17	SLC22A15	2	-0.331	75.3
18	SLC22A15	3	-2.01	41.8
19	SIGLEC5 (sialic acid binding Ig like lectin 5)	1	-0.321	75.5
20	SIGLEC5 (sialic acid binding Ig like lectin 5)	2	0.856	98.9
21	SIGLEC5 (sialic acid binding Ig like lectin 5)	3	-0.381	74.3
22	MOB2 (MOB kinase activator 2)	1	0.0151	82.2
23	MOB2 (MOB kinase activator 2)	2	0.132	84.5
24	MOB2 (MOB kinase activator 2)	3	0.223	86.3
25	MRPL55 (mitochondrial ribosomal protein L55)	1	-0.651	68.9
26	MRPL55 (mitochondrial ribosomal protein L55)	2	0.144	84.8
27	MRPL55 (mitochondrial ribosomal protein L55)	3	0.262	87.1
28	ODAD1 (outer dynein arm docking complex subunit 1)	1	-0.488	72.2
29	ODAD1 (outer dynein arm docking complex subunit 1)	2	1.71	116
30	ODAD1 (outer dynein arm docking complex subunit 1)	3	3.97 (active)	161
31	CENPBD1P (CENPB DNA-binding domain containing 1, pseudogene)	1	2.26	127
32	CENPBD1P (CENPB DNA-binding domain containing 1, pseudogene)	2	3.36 (active)	149
33	CENPBD1P (CENPB DNA-binding domain containing 1, pseudogene)	3	-0.995	62.1
34	MMP26 (matrix metallopeptidase 26)	1	-0.381	74.3
35	MMP26 (matrix metallopeptidase 26)	2	-0.000869	81.9
36	MMP26 (matrix metallopeptidase 26)	3	0.833	98.5
37	RNF170 (ring finger protein 170)	1	-0.206	77.8
38	RNF170 (ring finger protein 170)	2	0.602	93.9
39	RNF170 (ring finger protein 170)	3	0.663	95.1
40	LRRC45 (leucine rich repeat containing 45)	1	-1.15	59
41	LRRC45 (leucine rich repeat containing 45)	2	-0.418	73.6
42	LRRC45 (leucine rich repeat containing 45)	3	-0.398	74
43	MPND (MPN domain containing)	1	-0.957	62.9
44	MPND (MPN domain containing)	2	0.792	97.6
45	MPND (MPN domain containing)	3	-0.657	68.8
46	NKX6-2 (NK6 homeobox 2)	1	1.07	103
47	NKX6-2 (NK6 homeobox 2)	2	4.08 (active)	163
48	NKX6-2 (NK6 homeobox 2)	3	1.49	112
49	NAA11 (N-alpha-acetyltransferase 11, NatA catalytic subunit)	1	0.211	86.1
50	NAA11 (N-alpha-acetyltransferase 11, NatA catalytic subunit)	2	0.584	93.5
51	NAA11 (N-alpha-acetyltransferase 11, NatA catalytic subunit)	3	0.446	90.8
52	SPECC1	1	0.087	83.6
53	SPECC1	2	-0.354	74.8
54	SPECC1	3	0.0228	82.3
55	PRPSAP2 (phosphoribosyl pyrophosphate synthetase associated protein 2)	1	-0.416	73.6
56	PRPSAP2 (phosphoribosyl pyrophosphate synthetase associated protein 2)	2	-0.855	64.9
57	PRPSAP2 (phosphoribosyl pyrophosphate synthetase associated protein 2)	3	0.263	87.1

Part of the list above, limited to “total luciferase, z-score”.
RNF170 (ring finger protein 170) #3: 0.663
LRRC45 (leucine rich repeat containing 45) #1: -1.15
LRRC45 (leucine rich repeat containing 45) #2: -0.418
